# Results of single-concentration screens

By UniProt entry, the sequences of proteins in these tests, tags left out.
UniProt P9WPC5, whole entry: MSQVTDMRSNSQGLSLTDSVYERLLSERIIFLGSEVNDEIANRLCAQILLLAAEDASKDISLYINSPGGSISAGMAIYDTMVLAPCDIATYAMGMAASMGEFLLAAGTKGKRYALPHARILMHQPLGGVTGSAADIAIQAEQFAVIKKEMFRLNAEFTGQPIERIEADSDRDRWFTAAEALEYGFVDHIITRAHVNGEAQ
UniProt P9WPC3, whole entry partner: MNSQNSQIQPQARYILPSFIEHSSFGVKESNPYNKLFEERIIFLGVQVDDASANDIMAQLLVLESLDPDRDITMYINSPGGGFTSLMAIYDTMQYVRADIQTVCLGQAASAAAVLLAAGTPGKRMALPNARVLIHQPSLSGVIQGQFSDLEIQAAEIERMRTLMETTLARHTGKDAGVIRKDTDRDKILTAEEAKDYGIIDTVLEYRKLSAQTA
UniProt P9WNZ1, whole entry: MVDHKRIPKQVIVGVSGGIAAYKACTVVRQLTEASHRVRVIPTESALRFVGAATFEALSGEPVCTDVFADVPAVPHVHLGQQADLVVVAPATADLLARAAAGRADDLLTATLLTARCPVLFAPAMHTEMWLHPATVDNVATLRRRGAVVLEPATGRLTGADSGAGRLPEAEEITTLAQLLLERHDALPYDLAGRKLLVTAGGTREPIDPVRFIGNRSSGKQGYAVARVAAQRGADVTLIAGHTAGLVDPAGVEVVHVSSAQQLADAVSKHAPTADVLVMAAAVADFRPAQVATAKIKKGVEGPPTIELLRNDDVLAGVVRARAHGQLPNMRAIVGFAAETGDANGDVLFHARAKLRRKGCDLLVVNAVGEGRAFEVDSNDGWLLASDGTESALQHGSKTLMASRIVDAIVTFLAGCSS

Measurements from “University of Dundee, Small-Polar-MMV Screening Library” (2021), ChEMBL document CHEMBL3988442.

Results are given as percent effect.
The record does not define 0% and 100%; most values in the screen are far below 50% and negative numbers occur (in some assays of this library far below -100).
The compounds are a random part of those screened.

ClpP1P2: 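ClpP1P2, Mycobacterium tuberculosis (UniProt P9WPC5 and UniProt P9WPC3). Protease assay of ClpP1P2, read by the AMC dye that it sets free. Concentration: 50 µM. Direction is inferred from only a few compounds that gave an IC50; most scored high, so higher reads as stronger inhibition. Most other retested compounds had strongly negative values. Of about 69,000 compounds tested this way, about 10 (0.015%) reached 50% or more in at least one test.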
CoaBC: 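Coenzyme A biosynthesis protein CoaBC, Mycobacterium tuberculosis (UniProt P9WNZ1). Enzyme assay of CoaBC with a phosphate dye (Biomol Green) read at 650 nm. Concentration: 30 µM. Higher reads as stronger inhibition, judged from the few compounds that gave an IC50. Most strong results did not repeat in a second test. Size under these conditions: about 67,000 compounds, about 40 of them at 50% or above in at least one test.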
Toxoplasma: 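Assay of Toxoplasma gondii numbers, read through their beta-galactosidase reporter with a colour substrate. Concentration: 10 µM. Higher reads as fewer parasites (inferred from which compounds were picked for retests). Size under these conditions: about 67,000 compounds, about 260 of them at 50% or above in at least one test.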

SMILES: O=C(O)C(F)(F)F.O=C(O)C(F)(F)F.[H][C@@]12COC[C@]1(CN(C)C)CN(Cc1ccc3c(c1)OCO3)C2
Toxoplasma: 1.908%

SMILES: Cc1noc(C)c1CN(C)C(=O)c1ccc(C(N)=O)nc1
ClpP1P2: -9.952%
CoaBC: -4.042%
Toxoplasma: -23.23%

SMILES: CCCN1CCN(c2ccc(-c3nc(C)no3)cn2)CC1
ClpP1P2: 20.18%
CoaBC: 1.235%
Toxoplasma: 12.2%

SMILES: CCn1c(C2CCN(C(=O)c3ccc4cc[nH]c4c3)CC2)n[nH]c1=O
ClpP1P2: 11.02%
CoaBC: -3.893%
Toxoplasma: -19.97%

SMILES: COc1cc(C(=O)NS(=O)(=O)c2cccc(C#N)c2)cc(OC)c1C
ClpP1P2: -34.28%
CoaBC: 5.492%
Toxoplasma: -1.526%

SMILES: O=C(c1ccsc1)N1CC[C@@H](N2CCOCC2)[C@@H]1Cc1ccccc1
ClpP1P2: 5.318%
CoaBC: 3.361%
Toxoplasma: 3.627%

SMILES: Cc1ccc(C)c(OCCNC(=O)[C@@H]2CCCCN2)c1
ClpP1P2: -11.31%
CoaBC: -5.433%
Toxoplasma: 0.5036%

SMILES: Cc1ccc(CNC(=O)NC2CCCN(c3ncccn3)C2)n1C (centres unmarked)
ClpP1P2: -12.73%
CoaBC: 11.58%
Toxoplasma: 1.571%

SMILES: CC(C)=CCNC1CCCN(c2ccc(C)nn2)C1 (centres unmarked)
ClpP1P2: -7.636%
CoaBC: -3.614%
Toxoplasma: -1.84%

SMILES: CN1Cc2cnn(CC3CCCC3)c2C(COCC2CC2)C1 (centres unmarked)
ClpP1P2: -16.1%
CoaBC: -0.8631%

SMILES: COCCOc1ccccc1CNCc1c(C)nn(C)c1N(C)C
ClpP1P2: 9.421%
CoaBC: 3.203%
Toxoplasma: 5.342%

SMILES: Cc1cc(NC(=O)CN2CCCC2c2noc(C(C)C)n2)on1 (centres unmarked)
ClpP1P2: -19.68%
CoaBC: 1.828%
Toxoplasma: -7.8%

SMILES: Cn1cc(CN2CCCN(C(=O)c3ccc4c(c3)COC4)CC2)cn1
ClpP1P2: 7.358%
CoaBC: -3.84%
Toxoplasma: 4.708%

SMILES: Cc1cnn(CC2CN(CCN3CCCC3=O)CCO2)c1 (centres unmarked)
ClpP1P2: -6.072%
CoaBC: 1.762%
Toxoplasma: 5.263%

SMILES: CC1COCCN1C(=O)c1ccc(=O)n(CCOc2ccccc2)n1 (centres unmarked)
ClpP1P2: 2.684%
CoaBC: -1.683%
Toxoplasma: -6.145%

SMILES: c1cc(CN2CCCN(c3ccc4cc[nH]c4n3)CC2)ccn1
ClpP1P2: 10.41%
CoaBC: -9.677%
Toxoplasma: -1.219%

SMILES: CC(C)CN1CCc2[nH]nc(C(=O)N3CCCC3)c2C1
ClpP1P2: -1.264%
CoaBC: -3.202%

SMILES: CC(Cn1cccn1)NC(=O)NCc1ccnc(OC2CCCC2)c1 (centres unmarked)
ClpP1P2: -13.91%
CoaBC: 3.916%
Toxoplasma: -16.79%

SMILES: Cc1cc(C(=O)N2C[C@@H]3COC[C@]3(CN(C)C)C2)sc1C
ClpP1P2: 2.681%

SMILES: O=C(NCc1cccnc1)[C@@H]1CC[C@@H]2[C@@H](CCN2c2ncccn2)O1
ClpP1P2: -0.3524%
CoaBC: 4.574%

SMILES: CCn1cnnc1CNC(=O)N1CCN(CC(C)C)CC1
ClpP1P2: -27.74%
CoaBC: 4.439%
Toxoplasma: 3.403%

SMILES: CCOC(C)c1nccn1CCC(=O)Nc1cc(C)on1 (centres unmarked)
ClpP1P2: 4.631%
CoaBC: -3.906%
Toxoplasma: -2.386%

The last 2 entries again:

| SMILES | ClpP1P2 | CoaBC | Toxoplasma |
|---|---|---|---|
| `CCn1cnnc1CNC(=O)N1CCN(CC(C)C)CC1` | -27.74% | 4.439% | 3.403% |
| `CCOC(C)c1nccn1CCC(=O)Nc1cc(C)on1` (centres unmarked) | 4.631% | -3.906% | -2.386% |